Assay results taken from patent US4590193A, “3-(2-(4-phenylpiperazinylethyl)anilino)-isobenzofuranones, their method of preparation and their use as antihypertensive and antiallergic drugs” (Societe Cortial, S.A., priority 1982, dated 1986).

Test system: contractions induced by serotonin on an isolated guinea pig ileum
Assay: In vitro antiserotonin activity: inhibition of serotonin-induced contractions of isolated guinea pig ileum
Format: cell-based
Conditions: Cavia porcellus; serotonin 5.10^-7 g/ml; time of contact 3 mm
Excerpt: The products of this invention are competitive antagonists of histamine.

IC50: 141 nM
Structure (SMILES): CN1CCC(=C2c3ccccc3C=Cc3ccccc32)CC1 [Cyproheptadine, reference compound]
